Source: PubChem BioAssay AID651640 (Broad Institute, 2012)
The whole screen tested about 350,000 compounds, of which about 6,000 (1.7%) were called active. Inconclusive means that the source gave no clear call. Such entries were picked first, then a sample of the others. Cut-off read from the data, not from the text of the source: active = CPE inhibition above about 20% (passing the limit was not always enough); inconclusive = no clear call, values can overlap the other calls; tested in BHK-21 cells.

Experiment: protection of cells from dengue 2 killing – plate reader, single concentration, primary screen (AID 651640);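 note: 0% = median of neutral control wells and 100% = median of positive control wells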
Conditions: DENV2-infected cells, cytopathic effect rescue, at 9.99 µM, active compounds read high

Row | Compound | CPE inhibition
1 | Cc1cccc(C)c1-n1nnnc1C1(C)CCC(=O)N1Cc1ccco1 (centres undefined) | inactive: 5.09%
2 | COc1ccccc1S(=O)(=O)N1C[C@@H]2N[C@H](C1)C2c1ccc(-c2cccnc2)cc1 (some centres undefined) | inconclusive: 68.8%
3 | Cc1cc(C)c2c(=O)n(CC(=O)Nc3cccc(Cl)c3C)sc2n1 | inconclusive: 21%
4 | CO[C@@H]1CC[C@@H]2CCN(C)C(=O)[C@H](C)N(C)C(=O)c3cccc(C#N)c3OC[C@H]1O2 | inconclusive: 21.2%
5 | O=C(Cc1ccc(Cl)cc1)N/N=C/c1ccc(O)c(O)c1 | inactive: -1.71%
6 | CN(C)C(=O)[C@@H]1[C@@H](CO)[C@@H]2Cn3c(ccc(C4=CCCC4)c3=O)[C@H]1N2CC1CCCCC1 | inactive: -6.96%
7 | C[C@@H]1CCCCO[C@H](CN(C)Cc2ccc3c(c2)OCO3)[C@H](C)CN([C@@H](C)CO)C(=O)c2cc(NC(=O)Nc3cccc4ccccc34)ccc2O1 | inactive: -24.9%
8 | CCN(CC(=O)Nc1c(F)cccc1F)C(=O)c1nc2nccc(C)n2n1 | inactive: -3.56%
9 | COc1ccc(Nc2nc3ccc(C)cc3cc2C#N)c(OC)c1 | inconclusive: 27.4%
10 | O=C(Nc1ccon1)c1nc[nH]c1C(=O)N1CCN(c2ccccc2)CC1 | inconclusive: 25.6%
11 | Cn1c(SCC(=O)NCc2ccco2)nnc1C1CCCC1 | inconclusive: 23.1%
12 | O=C(C[C@@H]1CC[C@H]2[C@@H](COC[C@H](O)CN2CC2CC2)O1)NCc1ccc(Cl)cc1 | inconclusive: 50.3%
13 | O=C(CN1CCCCCCC1)N/N=C/c1ccc(F)c(F)c1 | inactive: 0.035%
14 | COc1ccc(S(=O)(=O)N[C@H]2C=C[C@@H](CC(=O)NCCc3ccccc3)O[C@@H]2CO)cc1 | active: 24.1%
15 | Cc1nn(C)c(C)c1C1C(C#N)=C(N)OC2=C1C(=O)CC(C)(C)C2 (centres undefined) | inconclusive: 24.6%
16 | C[C@H](CO)N1C[C@H](C)[C@H](CN(C)S(=O)(=O)c2cccc(F)c2)Oc2cc(C#CCN(C)C)ccc2S1(=O)=O | inactive: -1.52%
17 | Cc1cc(C)cc(NC(=O)c2ccc(CN3CCc4ccccc4C3)cc2)c1 | inconclusive: 26.9%
18 | COc1ccc2[nH]c(C(=O)N3CCN(Cc4ccccc4)CC3)cc2c1OC | inconclusive: 23%
19 | CC(=O)N1[C@H](Cc2ccccc2)C=C[C@]1(C)C(=O)NCCc1c[nH]c2ccccc12 | inconclusive: 80.3%
20 | C[C@@H]1CN([C@@H](C)CO)C(=O)c2cc(-c3cccnc3)cnc2O[C@H]1CN(C)C(=O)c1ccccc1F | inactive: -11.5%
21 | Cc1cc(C)n(-c2nnc(Cl)c3ccccc23)n1 | active: 22.9%
22 | CCC(=O)Nc1ccc2c(c1)C(=O)N(C)C[C@H](OC)[C@@H](C)CN(C(=O)CC)[C@@H](C)CO2 | active: 62.6%
23 | CCSc1nnc(CSc2ncccn2)n1C | inactive: 0.811%
24 | COC(=O)[C@@H]1C[C@H]2CC[C@H](O)C[C@H]2N1Cc1ccc(C(F)(F)F)cc1 | active: 60.8%
25 | O=C(CSc1nnc(C2CC2)n1C1CC1)c1ccc(Br)s1 | inconclusive: 35.5%

As entered above:
O=C(Nc1ccon1)c1nc[nH]c1C(=O)N1CCN(c2ccccc2)CC1 – CPE inhibition: inconclusive: 25.6%
C[C@H](CO)N1C[C@H](C)[C@H](CN(C)S(=O)(=O)c2cccc(F)c2)Oc2cc(C#CCN(C)C)ccc2S1(=O)=O – CPE inhibition: inactive: -1.52%
CCC(=O)Nc1ccc2c(c1)C(=O)N(C)C[C@H](OC)[C@@H](C)CN(C(=O)CC)[C@@H](C)CO2 – CPE inhibition: active: 62.6%
CCSc1nnc(CSc2ncccn2)n1C – CPE inhibition: inactive: 0.811%
Cc1cccc(C)c1-n1nnnc1C1(C)CCC(=O)N1Cc1ccco1 (centres undefined) – CPE inhibition: inactive: 5.09%
CCN(CC(=O)Nc1c(F)cccc1F)C(=O)c1nc2nccc(C)n2n1 – CPE inhibition: inactive: -3.56%

Remaining list, next part

Row | Compound | CPE inhibition
26 | CC(NC(=O)CSc1ncccn1)c1ccc(Cl)cc1Cl (centres undefined) | inconclusive: 37.8%
27 | CCC(=O)N1[C@@H]2Cn3c(cccc3=O)[C@H]1[C@@H](C(=O)N1CCCCC1)[C@@H]2CO | inconclusive: 43.4%
28 | CC(C)(C)N(Cc1ccccc1)C(=O)COC(=O)CNS(=O)(=O)c1ccc2ccccc2c1 | inconclusive: 29.6%
29 | CCCCCCCCN1C(=O)[C@@H](CC(=O)N2CCCC2)C[C@@]2(C(=O)OC)C1=C[C@H](C1CCCC1)O[C@@H]2C | inactive: -0.106%
30 | COc1cc2oc(=O)cc(CN(Cc3ccccc3)Cc3ccccc3)c2cc1Cl | inconclusive: 22.5%
31 | CCCCN1C(=O)C(CC(=O)NC2CC2)CC(C(=O)N(CC)CC)=C1C (centres undefined) | active: 22.9%
32 | O=C(O)CCCC(=O)Nc1ccc(-n2ccc(C(F)(F)F)n2)cc1 | inconclusive: 24.6%
33 | CCOc1cc2c3c(c1)C(C)=CC(C)(C)N3C(=O)C2=O | inactive: -3.23%
34 | CN1CCN(Cc2nc(Cc3ccccc3)no2)CC1c1ccccc1 (centres undefined) | inconclusive: 43%
35 | C[C@H]1CCCCO[C@H](CN(C)C(=O)CCCN(C)C)[C@@H](C)CN([C@@H](C)CO)C(=O)c2cc(NC(=O)Cc3ccccc3)ccc2O1 | active: 29%
36 | COc1ccc(NC(=O)N(C)C[C@H]2Oc3c(NC(=O)c4cnccn4)cccc3C(=O)N([C@@H](C)CO)C[C@@H]2C)cc1 | inactive: 12.9%
37 | COc1ccc(NC(=O)N2CCCCN3[C@H](CO)[C@H](c4ccc(-c5ccccc5F)cc4)[C@H]3C2)cc1 | inactive: -24.8%
38 | O=C(Cc1cccnc1)N[C@H]1CC[C@H](CCn2cc(Cc3ccccc3)nn2)O[C@@H]1CO | active: 77.2%
39 | CC(C)=CCc1c(O)c(CC=C(C)C)c2c(c1O)C(=O)CC(c1ccc(O)cc1)O2 (centres undefined) | inconclusive: 22.8%
40 | COc1ccc(C(CNC(=O)c2ccc(S(=O)(=O)Nc3ccccc3F)cc2)N(C)C)cc1 (centres undefined) | inconclusive: 24%
41 | O=C(C[C@@H]1C[C@@H]2c3cc(NS(=O)(=O)c4ccccc4)ccc3O[C@@H]2[C@H](CO)O1)NC1CCCC1 | inactive: -3.88%
42 | COCC(=O)N1[C@H](CO)[C@H](c2ccccc2)[C@@H]1CNC(=O)c1ccccn1 | inactive: -3.63%
43 | CC(C)[C@@H](C(=O)N[C@@H](CCc1ccc(O)cc1)C(=O)O)N(C)C(=O)[C@H](CO)NC(=O)[C@@H](O)[C@H](N)CCCCCCCCl | inactive: -0.276%
44 | COc1ccc(S(=O)(=O)N(C)C[C@H]2Oc3ccc(NC(=O)CCCN(C)C)cc3C(=O)N([C@H](C)CO)C[C@@H]2C)cc1 | inactive: -6.5%
45 | CS/C(=N\S(=O)(=O)c1cccs1)Nc1cccc(Cl)c1C | inactive: -3.16%
46 | O=C(c1ccccc1F)N1CCC2CC1c1cc(N3CCCCC3)ccc12 (centres undefined) | active: 41.7%
47 | COc1ccc2c(CN3CCN(Cc4ccccc4)CC3)cc(=O)oc2c1 | inconclusive: 63.1%
48 | NC(=O)CC[C@H](NC(=O)[C@H](Cc1ccccc1)n1c(=O)[nH]c2ccccc2c1=O)C(=O)N1CCC[C@H]1C(=O)O | active: 66.3%
49 | CC(C)(C)OC(=O)CC1(C#N)c2ccccc2C(Br)=CN1C(=O)c1ccccc1 (centres undefined) | inconclusive: 32.1%
50 | O=C(CCN1C(=O)/C(=C/c2ccco2)SC1=S)Nc1ccc(O)cc1C(=O)O | inactive: -2.88%

Row | Compound | CPE inhibition
51 | Cc1ccc2ccccc2c1C(O)c1ncc(-c2ccccc2Cl)[nH]1 (centres undefined) | inconclusive: 23.2%
52 | Cc1noc(C)c1S(=O)(=O)Nc1ccc2c(c1)C(=O)N([C@H](C)CO)C[C@H](C)[C@H](CN(C)C(=O)Nc1ccc(C(F)(F)F)cc1)OCCCC[C@H](C)O2 | inconclusive: 21.4%
53 | S=P(N1CC1)(N1CC1)N1CC1 | active: 41.9%
54 | N=c1n(CCN2CCCCC2)c2ccccc2n1CC(O)c1ccco1 (centres undefined) | inconclusive: 21.5%
55 | CSc1ncccc1C(=O)N1CCCC(C(=O)c2ccc3ccccc3c2)C1 (centres undefined) | inactive: 16%
56 | CCCNC(=O)c1cc2c(c(-c3cccc(-c4cc5ccccc5o4)c3)n1)[C@@H](CCO)N(C(=O)NC(C)C)C2 | inconclusive: 21.7%
57 | C[C@@H]1CCCCO[C@H](CN(C)S(=O)(=O)c2ccc(Cl)cc2)[C@@H](C)CN([C@@H](C)CO)C(=O)c2cc(NS(=O)(=O)c3cccs3)ccc2O1 | active: 68.6%
58 | O=c1c2cc(F)ccc2[nH]c(=S)n1Cc1ccc(F)cc1 | inconclusive: 49.5%
59 | O=C1CC(/C=C/c2cccnc2)=Nc2ccccc2N1 | inconclusive: 20.8%
60 | C[C@@H]1CCCCO[C@H](CN(C)C(=O)Nc2cccc3ccccc23)[C@@H](C)CN([C@@H](C)CO)C(=O)c2cc(NC(=O)Nc3ccc(F)cc3)ccc2O1 | active: 32.7%
61 | COc1cc(C(=O)Nc2nnc(SC)s2)c([N+](=O)[O-])cc1OC | inconclusive: 21.4%
62 | COC(=O)C[C@H]1C=C[C@H](NC(=O)Nc2ccccc2)[C@@H](CO)O1 | inconclusive: 39.2%
63 | O=C(Nc1ccc(-c2nnc3n2CCCCC3)cc1)c1cc2ccccc2o1 | inactive: 5.39%
64 | CC(C)[C@H](NC(N)=O)C(=O)Nc1cccc(S(=O)(=O)N2CCOCC2)c1 | inconclusive: 21.5%
65 | Cc1cccc(-c2ccc([C@H]3[C@@H](CO)N4CCCCN(C(=O)c5ccncc5)C[C@@H]34)cc2)c1 | active: 50.9%
66 | O=C(Nc1ccccc1F)N[C@@H]1CC[C@H](CCNS(=O)(=O)c2ccc(F)cc2)O[C@@H]1CO | inactive: -1.5%
67 | COc1ccc(CNC(=O)C[C@@H]2C=C[C@@H](NC(=O)c3ccc4c(c3)OCO4)[C@H](CO)O2)cc1 | active: 43.5%
68 | C[C@@H]1CCCCO[C@@H](CN(C)C(=O)Nc2cccc3ccccc23)[C@H](C)CN([C@@H](C)CO)C(=O)c2cc(NS(=O)(=O)c3ccc(F)cc3)ccc2O1 | inconclusive: 29.2%
69 | O=C(C[C@@H]1CC[C@H](NC(=O)NC2CCCCC2)[C@H](CO)O1)NCc1ccccc1 | inactive: 5.75%
70 | c1ccc(-c2csc(Nc3ccc4c(c3)OCO4)n2)cc1 | inconclusive: 27.1%
71 | C[C@@H]1CN([C@@H](C)CO)C(=O)Cc2cc(NC(=O)Nc3ccccc3)ccc2O[C@H]1CN(C)Cc1ccc(Cl)c(Cl)c1 | active: 37.5%
72 | Clc1ccc(Cl)c(OCCN2CCCC2)c1 | inactive: 1.23%
73 | COc1ccc(-c2[nH]ncc2CN(C)C(C)c2ccon2)cc1F (centres undefined) | inactive: -4.48%
74 | COc1ccc(Cl)cc1NC(=O)CN(C)C(=O)CN1C(=O)NC2(CCCC2)C1=O | inconclusive: 26%
